Literature values in patent US5972639A, “Fluorescence-based assays for measuring cell proliferation” (Irori, priority 1997, dated 1999).
At least one structure is not confirmed: it was looked up by name or label, or the drawing left a doubt.

The chains behind the UniProt entries cited, without tags or fusion partners. Residues count along the entry.
UniProt P00634, 22-471: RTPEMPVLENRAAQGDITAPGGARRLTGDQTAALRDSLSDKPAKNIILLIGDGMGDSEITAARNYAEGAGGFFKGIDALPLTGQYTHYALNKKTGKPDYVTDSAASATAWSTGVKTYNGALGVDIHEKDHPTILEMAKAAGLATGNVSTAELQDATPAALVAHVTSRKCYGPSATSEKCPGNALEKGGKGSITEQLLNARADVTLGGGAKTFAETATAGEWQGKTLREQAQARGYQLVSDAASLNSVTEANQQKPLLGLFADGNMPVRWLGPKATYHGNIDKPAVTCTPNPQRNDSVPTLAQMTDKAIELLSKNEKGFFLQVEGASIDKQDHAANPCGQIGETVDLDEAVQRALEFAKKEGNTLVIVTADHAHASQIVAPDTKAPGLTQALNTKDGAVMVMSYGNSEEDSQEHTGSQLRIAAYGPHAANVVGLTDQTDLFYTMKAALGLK

Assays:
Conditions in all cases: cited from earlier work
[1] = system: Acid phosphatase
[2] = system: Alkaline phosphatase
[3] = system: Alkaline phosphatase (intestinal)
[4] = system: Acid phosphatase (potato)
[5] = biological target: Alkaline phosphatase (E. coli) (Escherichia coli, UniProt P00634)

Structure (SMILES) | Acid phosphatase, products identified [1] | Alkaline phosphatase, products identified [2] | Cleavage shown by high voltage paper, electrophoresis [3] | Cleavage shown by high voltage paper, electrophoresis [4] | Km [4] | V max [4] | Cleavage shown by high voltage paper, electrophoresis [5]
CCOP(O)(O)=S [O-Ethyl phosphorothioate] | ^35 S-Phosphoro-thioate, d | No cleavage |  |  |  |  | 
COP(O)(O)=S [O-Methyl phosphorothioate] | ^35 S-Phosphoro-thioate, d | No cleavage |  |  |  |  | 
O=[N+]([O-])c1ccc(OP(O)(O)=S)cc1 [O-p-Nitrophenyl thiophosphate] | ^35 S-Phosphoro-thioate | No cleavage | No | Yes | 220 µM | 3.2 × 10^-10 | No
O=C(O)CSP(=O)(O)O [S-(Carboxymethyl) phosphorothioate] | No cleavage | d, ^32 Pi |  |  |  |  | 
O=[N+]([O-])c1ccc(OP(=O)(O)O)cc1 [p-NPP, p-nitrophenyl phosphate] |  | p-Nitrophenol, ^32 Pi |  |  |  |  | Yes
